PubChem BioAssay AID1347422 (Sanford-Burnham Center for Chemical Genomics, 2020)
In all, about 1,000 compounds were measured (“thermal shift dTm”: median about 0.19, highest 2% from about 1.7 on). The list shows a part of the results. Calls of active or inactive are those of the source.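 The calls were made as follows: active = mean rise in melting temperature of at least 1 degC over same-plate control wells; inactive = below that, where a call was filed.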

Amino acid sequences for entries named in this document (tags omitted). A change or cut given only in a name is not applied to a line headed by its entry.
UniProt O00391: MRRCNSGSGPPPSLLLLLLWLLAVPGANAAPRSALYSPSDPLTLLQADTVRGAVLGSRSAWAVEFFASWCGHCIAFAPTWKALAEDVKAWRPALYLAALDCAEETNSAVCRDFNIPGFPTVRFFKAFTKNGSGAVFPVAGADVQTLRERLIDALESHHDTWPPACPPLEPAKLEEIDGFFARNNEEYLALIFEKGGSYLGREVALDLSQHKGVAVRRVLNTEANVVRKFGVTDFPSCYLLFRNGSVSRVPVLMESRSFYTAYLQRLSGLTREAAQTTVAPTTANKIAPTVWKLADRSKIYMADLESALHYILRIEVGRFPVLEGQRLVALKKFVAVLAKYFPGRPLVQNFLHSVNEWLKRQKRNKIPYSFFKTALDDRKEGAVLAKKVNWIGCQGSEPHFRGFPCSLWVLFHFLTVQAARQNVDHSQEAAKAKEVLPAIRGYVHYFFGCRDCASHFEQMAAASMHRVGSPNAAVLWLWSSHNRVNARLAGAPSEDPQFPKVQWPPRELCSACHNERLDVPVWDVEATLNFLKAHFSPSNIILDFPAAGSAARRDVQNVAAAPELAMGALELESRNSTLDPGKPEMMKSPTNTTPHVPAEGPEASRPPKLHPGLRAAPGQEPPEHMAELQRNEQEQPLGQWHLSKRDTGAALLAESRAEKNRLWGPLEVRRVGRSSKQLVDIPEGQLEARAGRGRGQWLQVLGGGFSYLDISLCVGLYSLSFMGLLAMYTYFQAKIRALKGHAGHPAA

These molecules were tested against Sulfhydryl oxidase 1 (Homo sapiens) (UniProt O00391) (assay: ligand-induced melting shift of human QSOX1 – biophysical, protein thermal shift, single concentration, QSOX1 inhibitor project, confirmation (AID 1347422;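 also: dTm is compound Tm minus mean Tm of DMSO-only wells on that plate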)). Conditions: recombinant hQSOX1 thermal shift, Sypro Orange, at 25 µM, stronger effect = higher value.

**Q.** Which thermal shift dTm does the source give for `COc1ccc(NC(=O)c2ccoc2)cc1Cl` here?
**A.** Its thermal shift dTm is 0.23 °C.

**Q.** How did the thermal shift dTm turn out when `Cc1ccccc1Cn1cc(NC(=O)C2CC(c3ccc(Cl)cc3)=NO2)cn1` (stereo not drawn) was run?
**A.** Its thermal shift dTm is 0.35 °C.

**Q.** With `Cc1ccc(C(=O)Nc2ccc(S(=O)(=O)N3CCc4ccccc43)cc2)o1` as the molecule, how does the thermal shift dTm read?
**A.** Its thermal shift dTm is active: 1.08 °C.

**Q.** Which thermal shift dTm does the source give for `COc1cc2c(cc1NC(=O)C1CC1)oc1ccccc12` here?
**A.** The thermal shift dTm was 0.04 °C.

**Q.** Which thermal shift dTm does the source give for `N#Cc1c(-c2ccco2)nc(SCc2ccc(F)cc2)[nH]c1=O` here?
**A.** Its thermal shift dTm is active: 1.21 °C.

**Q.** `Fc1cccc(NC(=S)Nc2ccc(Oc3ccccc3)cc2)c1` was tested. Which thermal shift dTm did it give?
**A.** The thermal shift dTm was 0.73 °C.

**Q.** For `CCC(=O)Nc1cccc(NC(=O)/C=C/c2ccc(C(C)C)cc2)c1`, which thermal shift dTm is on record?
**A.** The thermal shift dTm was inactive: -0.03 °C.

**Q.** With `CC(Cc1cccnc1)Nc1nncc(-c2cccc(F)c2)n1` (stereo not drawn) as the molecule, how does the thermal shift dTm read?
**A.** Its thermal shift dTm is inactive: 0 °C.

**Q.** With `O=C(Nc1cccc(-c2ccco2)c1)C1CCN(C(=O)CCc2ccco2)CC1` as the molecule, how does the thermal shift dTm read?
**A.** Its thermal shift dTm is active: 1.03 °C.

**Q.** With `CCc1ccc(NC(=O)Nc2ccncc2)cc1` as the molecule, how does the thermal shift dTm read?
**A.** The thermal shift dTm was active: 1.68 °C.

**Q.** Which thermal shift dTm does the source give for `CC(=O)Cc1nsc(NC(=O)c2ccc(-c3ccc(Cl)c(Cl)c3)o2)n1` here?
**A.** Its thermal shift dTm is 0.15 °C.

**Q.** For `O=C(Nc1ccc(Cl)cc1)c1cccc(N2C(=O)c3cccnc3C2=O)c1`, which thermal shift dTm is on record?
**A.** The thermal shift dTm was 0.29 °C.

**Q.** Which thermal shift dTm does the source give for `Cc1ccc2cccc(OCCCOc3ccc(Br)cc3Cl)c2n1` here?
**A.** The thermal shift dTm was 0.12 °C.

**Q.** `COc1cc(/C=C/c2ccc3ccccc3n2)cc(Cl)c1OC(C)=O` was tested. Which thermal shift dTm did it give?
**A.** The thermal shift dTm was 0.25 °C.

**Q.** Which thermal shift dTm does the source give for `CC(C)(C)c1ccc(OCC(=O)Nc2ccc(Nc3ccccc3)cc2)cc1` here?
**A.** The thermal shift dTm was inactive: -0.13 °C.

**Q.** For `C=CCSC1=N/C(=C\c2ccc(-c3ccc(Cl)cc3)o2)C(=O)S1`, which thermal shift dTm is on record?
**A.** Its thermal shift dTm is 0.91 °C.

**Q.** With `COc1cc(Cl)c(S(=O)(=O)Nc2ccc3cn[nH]c3c2)cc1Cl` as the molecule, how does the thermal shift dTm read?
**A.** Its thermal shift dTm is 0.42 °C.

**Q.** For `CCc1ccc(OCCNC(=O)c2cccc(I)c2)cc1`, which thermal shift dTm is on record?
**A.** The thermal shift dTm was 0.17 °C.

**Q.** Which thermal shift dTm does the source give for `CC(C)CC(=O)Nc1ccc(C(=O)Nc2cccc(O)c2)cc1` here?
**A.** The thermal shift dTm was 0.51 °C.

**Q.** How did the thermal shift dTm turn out when `O=C(NCCc1ccccc1)c1ccc(NC(=O)C2CC2)cc1` was run?
**A.** Its thermal shift dTm is 0.04 °C.

**Q.** Which thermal shift dTm does the source give for `Cc1ccc(NC(=O)Nc2ccc3snnc3c2)cc1` here?
**A.** The thermal shift dTm was inactive: -0.45 °C.

**Q.** `CCCNC(=O)c1cccc(NC(=O)Nc2ccccc2)c1` was tested. Which thermal shift dTm did it give?
**A.** Its thermal shift dTm is inactive: -0.19 °C.

**Q.** Which thermal shift dTm does the source give for `CC(C)Oc1cccc(NC(=O)Nc2ccccc2)c1` here?
**A.** The thermal shift dTm was inactive: -0.74 °C.

**Q.** How did the thermal shift dTm turn out when `COc1cc(OC)c(NC(=O)CSc2nc(-c3ccccc3)cc(=O)[nH]2)cc1Cl` was run?
**A.** Its thermal shift dTm is 0.06 °C.

**Q.** For `Cc1cc(=O)oc2cc(NC(=S)NCCC(c3ccccc3)c3ccccc3)ccc12`, which thermal shift dTm is on record?
**A.** Its thermal shift dTm is 0.16 °C.

**Q.** With `Cc1cc(NS(=O)(=O)c2ccc(NC(=O)c3oc4ccccc4c3C)cc2)no1` as the molecule, how does the thermal shift dTm read?
**A.** The thermal shift dTm was 0.38 °C.

**Q.** For `O=C(NCCC1=CCCCC1)c1cc(-c2ccccc2)nc2ccccc12`, which thermal shift dTm is on record?
**A.** Its thermal shift dTm is 0.72 °C.

**Q.** `COc1cccc(OCCOc2ccc(C(C)(C)C)cc2)c1` was tested. Which thermal shift dTm did it give?
**A.** Its thermal shift dTm is 0.11 °C.

**Q.** `O=S(=O)(NCCSC1CCCCC1)c1ccc(Cl)cc1` was tested. Which thermal shift dTm did it give?
**A.** The thermal shift dTm was 0.11 °C.

**Q.** With `O=C(/C=C/c1ccco1)Nc1ccc(Br)cc1Cl` as the molecule, how does the thermal shift dTm read?
**A.** The thermal shift dTm was 0.54 °C.

**Q.** With `CCc1ccc2c(c1)C(OC(C)=O)C(C)(C)C(c1cccc(Br)c1)N2` (stereo not drawn) as the molecule, how does the thermal shift dTm read?
**A.** The thermal shift dTm was 0.44 °C.

**Q.** For `COc1ccc(CCNC(=O)Nc2ccccc2)cc1`, which thermal shift dTm is on record?
**A.** Its thermal shift dTm is 0.85 °C.

**Q.** `Cc1cc(C(=O)Nc2ccc(S(=O)(=O)N3CCCC3)cc2)c(C)o1` was tested. Which thermal shift dTm did it give?
**A.** The thermal shift dTm was inactive: 0 °C.

**Q.** With `O=c1nc2n(c3cc(Cl)ccc13)CC(O)=C2c1ccccc1` as the molecule, how does the thermal shift dTm read?
**A.** The thermal shift dTm was active: 1.08 °C.

**Q.** For `Cc1ccc(-c2nc(NC(=O)c3ccoc3C)sc2C)c(C)c1`, which thermal shift dTm is on record?
**A.** Its thermal shift dTm is 0.19 °C.

**Q.** With `COc1ccc(CNS(=O)(=O)c2ccc(Cl)c(OC)c2)cc1` as the molecule, how does the thermal shift dTm read?
**A.** The thermal shift dTm was 0.34 °C.

**Q.** `CN(C(=O)Nc1ccc(F)cc1)c1ccccc1` was tested. Which thermal shift dTm did it give?
**A.** The thermal shift dTm was inactive: -1.43 °C.

**Q.** How did the thermal shift dTm turn out when `CC(=O)C1=C(C)NC(SCC=C(C)C)=C(C#N)C1c1cccs1` (stereo not drawn) was run?
**A.** Its thermal shift dTm is 0.2 °C.

**Q.** Which thermal shift dTm does the source give for `COc1ccc(-c2cc3ccc(OCc4ccccc4Br)cc3oc2=O)cc1OC` here?
**A.** The thermal shift dTm was 0.67 °C.

**Q.** `CCSC1=N/C(=C\c2ccc(-c3cccc(Cl)c3)o2)C(=O)S1` was tested. Which thermal shift dTm did it give?
**A.** Its thermal shift dTm is 0.25 °C.

**Q.** With `Fc1ccc(-c2nc(-c3cccs3)c(-c3cccs3)[nH]2)cc1` as the molecule, how does the thermal shift dTm read?
**A.** The thermal shift dTm was active: 3.34 °C.

**Q.** `CC(C)c1ccc(/C=C/C(=O)Nc2ccc(C(N)=O)cc2)cc1` was tested. Which thermal shift dTm did it give?
**A.** The thermal shift dTm was 0.01 °C.

**Q.** With `O=C(Nc1cccc(NC(=O)c2ccco2)c1)c1cccc(F)c1` as the molecule, how does the thermal shift dTm read?
**A.** Its thermal shift dTm is active: 1.39 °C.

**Q.** With `CC(C)N(Cc1nc(-c2ccc(Cl)cc2)no1)S(=O)(=O)c1ccc(F)cc1` as the molecule, how does the thermal shift dTm read?
**A.** The thermal shift dTm was 0.02 °C.

**Q.** For `Oc1cccc(Nc2nc(-c3ccc(Cl)cc3)cs2)c1`, which thermal shift dTm is on record?
**A.** Its thermal shift dTm is 0.01 °C.

**Q.** `COc1ccc2[nH]cc(CCNC(=O)c3cccc(Cl)c3)c2c1` was tested. Which thermal shift dTm did it give?
**A.** The thermal shift dTm was active: 1.74 °C.

**Q.** With `CC1CCN(c2cc(N)c(Cl)cc2[N+](=O)[O-])CC1` as the molecule, how does the thermal shift dTm read?
**A.** The thermal shift dTm was 0.62 °C.

**Q.** Which thermal shift dTm does the source give for `CCN(CC)c1ccc2cc(-c3nc4ccccc4o3)c(=O)oc2c1` here?
**A.** Its thermal shift dTm is 0.15 °C.

**Q.** For `Cc1occc1C(=O)Nc1ccc(-c2nc3ccccc3c(=O)o2)cc1`, which thermal shift dTm is on record?
**A.** Its thermal shift dTm is active: 1.3 °C.

**Q.** `COc1ccccc1NC1=NC(c2ccc(F)cc2F)=[C+]S1` was tested. Which thermal shift dTm did it give?
**A.** Its thermal shift dTm is 0.1 °C.

**Q.** With `COc1ccccc1C(=O)NCCc1c[nH]c2ccc(F)cc12` as the molecule, how does the thermal shift dTm read?
**A.** The thermal shift dTm was inactive: -10.7 °C.

**Q.** For `O=C(Nc1ccc(O)cc1)c1ccc(NC(=O)C2CCCO2)cc1` (stereo not drawn), which thermal shift dTm is on record?
**A.** The thermal shift dTm was 0.65 °C.

**Q.** With `O=C(Nc1n[nH]c(-c2ccccc2)n1)N1CCC2(C=Cc3ccccc32)CC1` as the molecule, how does the thermal shift dTm read?
**A.** The thermal shift dTm was 0.09 °C.

**Q.** With `CCCC(=O)NC(c1ccc(Cl)cc1)c1c(O)ccc2ccccc12` (stereo not drawn) as the molecule, how does the thermal shift dTm read?
**A.** Its thermal shift dTm is 0.01 °C.

**Q.** `Cc1ccc(NC(=O)Nc2ccc(C)c(F)c2)c(C)c1` was tested. Which thermal shift dTm did it give?
**A.** The thermal shift dTm was 0.56 °C.

**Q.** For `COc1ccc(-c2cc3ccc(OC(C)=O)cc3oc2=O)cc1`, which thermal shift dTm is on record?
**A.** Its thermal shift dTm is 0.21 °C.

**Q.** How did the thermal shift dTm turn out when `O=C(Nc1ccc(C(=O)N2CCCCC2)cc1)Nc1ccc2c(c1)OCO2` was run?
**A.** Its thermal shift dTm is 0.32 °C.

**Q.** How did the thermal shift dTm turn out when `CCCNS(=O)(=O)c1cc(C(=O)Nc2cccc(C)c2)ccc1N1CCCC1` was run?
**A.** Its thermal shift dTm is inactive: -5.56 °C.

**Q.** Which thermal shift dTm does the source give for `Cc1ccc(-c2noc(CNC(=O)C34CC5CC(CC(C5)C3)C4)n2)cc1` here?
**A.** Its thermal shift dTm is 0.16 °C.

**Q.** With `CC(=O)Nc1cccc(NC(=O)COc2ccc(F)cc2Cl)c1` as the molecule, how does the thermal shift dTm read?
**A.** Its thermal shift dTm is inactive: 0 °C.

**Q.** How did the thermal shift dTm turn out when `O=C(Nc1cccc(Cl)c1)N1CCC(C(O)(c2ccccc2)c2ccccc2)CC1` was run?
**A.** The thermal shift dTm was 0.21 °C.

**Q.** With `Cc1ccc2cccc(OCCCCOc3ccccc3I)c2n1` as the molecule, how does the thermal shift dTm read?
**A.** Its thermal shift dTm is 0.77 °C.

**Q.** `COCCNC(=O)/C(=C/c1ccc(-c2cc(Cl)ccc2Cl)o1)NC(=O)c1ccc(C)cc1` was tested. Which thermal shift dTm did it give?
**A.** Its thermal shift dTm is inactive: -0.09 °C.

**Q.** Which thermal shift dTm does the source give for `c1cc(NCc2ccc3c(c2)OCO3)cc(-c2nc3ccccc3[nH]2)c1` here?
**A.** The thermal shift dTm was active: 2.39 °C.

**Q.** With `CCOc1ccc(C(=O)Nc2cccc(OCC)c2)cc1` as the molecule, how does the thermal shift dTm read?
**A.** The thermal shift dTm was inactive: -0.1 °C.

**Q.** Which thermal shift dTm does the source give for `FC(F)(F)c1ccc(Cl)c(Nc2nnc(-c3ccncc3)s2)c1` here?
**A.** The thermal shift dTm was 0.77 °C.

**Q.** `CCOc1ccccc1NC(=O)/C=C/c1cccc(Cl)c1` was tested. Which thermal shift dTm did it give?
**A.** The thermal shift dTm was 0.4 °C.

**Q.** `S=C(c1ccc(OCc2ccc(Cl)c(Cl)c2)cc1)N1CCOCC1` was tested. Which thermal shift dTm did it give?
**A.** Its thermal shift dTm is 0.16 °C.
